No constants are given. Whether binding was seen depends on the method and setting. Some entries that bind do so weakly or less than the wild type. Values belong to the binder of their own block, whether it stands above or below them.
Columns and labels:
[1] = molecular target: extracellular domain of human CD269 (BCMA, TNFRSF17), purified (human) (UniProt Q02223); test: ELISA on coated BCMA extracellular domain
[2] = molecular target: extracellular domain of human CD269 (BCMA, TNFRSF17), purified (human) (UniProt Q02223); test: SPR with BCMA at 1.1, 3.3, 10.0, 30.0 and 90.0 nM
[3] = molecular target: extracellular domain of human CD269 (BCMA, TNFRSF17), purified (human) (UniProt Q02223); test: ELISA on microtiter plates coated with the extracellular domain of human BCMA, detection with HRP-conjugated anti-human secondary antibody; x axis antibody (ng)
[4] = molecular target: extracellular domain of human CD269 (BCMA, TNFRSF17), purified (human) (UniProt Q02223); test: ELISA on BCMA-coated plates
[5] = molecular target: extracellular domain of human CD269 (BCMA, TNFRSF17), purified (human) (UniProt Q02223); test: ELISA of the hybridoma J22.9 supernatant on BCMA-coated microtiter plates at the indicated time points (days by the legend)
[6] = molecular target: extracellular domain of human CD269 (BCMA, TNFRSF17), purified (human) (UniProt Q02223); test: crystal structure; complex isolated by size exclusion chromatography

The chains behind the UniProt entries cited, without tags or fusion partners. Where a name states a change or a piece, a line headed by the entry shows the natural chain unless it says otherwise.
UniProt Q02223: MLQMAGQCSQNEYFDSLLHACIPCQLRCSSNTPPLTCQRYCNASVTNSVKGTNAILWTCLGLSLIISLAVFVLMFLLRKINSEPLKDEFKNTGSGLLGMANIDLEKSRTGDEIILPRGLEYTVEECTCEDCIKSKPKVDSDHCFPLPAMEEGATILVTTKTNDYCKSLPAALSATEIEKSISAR

binding [1]: binds | binding [2]: binds | binding [3]: binds
B1: J22.9-xi chimeric antibody (mouse VH/VL of hybridoma J22.9 on human IgG1 and kappa constant domains) (antibody, V domains shown)
VH: QVQLQQSGGGLVQPGGSLKLSCAASGIDFSRYWMSWVRRAPGKGLEWIGEINPDSSTINYAPSLKDKFIISRDNAKNTLYLQMSKVRSEDTALYYCASLYYDYGDAMDYWGQGTSVTVSS
VL: DIVMTQSQRFMTTSVGDRVSVTCKASQSVDSNVAWYQQKPRQSPKALIFSASLRFSGVPARFTGSGSGTDFTLTISNLQSEDLAEYFCQQYNNYPLTFGAGTKLELKR
modifications: N-linked oligosaccharide chain at Asn297
notes: Full length IgG made in 293-6E cells; the constant domains are marked 'Used in J22.9-xi'

binding [4]: binds | binding [5]: binds
B2: mouse anti-BCMA antibody secreted by hybridoma J22.9 (supernatant) (antibody, V domains shown)
VH: QVQLQQSGGGLVQPGGSLKLSCAASGIDFSRYWMSWVRRAPGKGLEWIGEINPDSSTINYAPSLKDKFIISRDNAKNTLYLQMSKVRSEDTALYYCASLYYDYGDAMDYWGQGTSVTVSS
VL: DIVMTQSQRFMTTSVGDRVSVTCKASQSVDSNVAWYQQKPRQSPKALIFSASLRFSGVPARFTGSGSGTDFTLTISNLQSEDLAEYFCQQYNNYPLTFGAGTKLELKR

binding [6]: binds
B3: Fab fragment prepared from J22.9-xi (Fab, V domains shown, not shown: a dimerising Fc or GST)
VH: QVQLQQSGGGLVQPGGSLKLSCAASGIDFSRYWMSWVRRAPGKGLEWIGEINPDSSTINYAPSLKDKFIISRDNAKNTLYLQMSKVRSEDTALYYCASLYYDYGDAMDYWGQGTSVTVSS
VL: DIVMTQSQRFMTTSVGDRVSVTCKASQSVDSNVAWYQQKPRQSPKALIFSASLRFSGVPARFTGSGSGTDFTLTISNLQSEDLAEYFCQQYNNYPLTFGAGTKLELKR
modifications: reduced cysteines alkylated with iodoacetamide
